Assay results taken from PubChem BioAssay (Tox21).
These results got no clear call from the source, so the numbers are uncertain. Unless noted, calls follow the shape of the dose curve; as a rule, active = well fitted curve in the direction sought with a large enough effect in the repeat runs; inconclusive = weak or mixed curves; inactive = no such curve, though single readings can be large; an effect the other way counts as inactive or inconclusive.

Amino acid sequences for entries named in this document (tags omitted).
UniProt Q03181, whole entry: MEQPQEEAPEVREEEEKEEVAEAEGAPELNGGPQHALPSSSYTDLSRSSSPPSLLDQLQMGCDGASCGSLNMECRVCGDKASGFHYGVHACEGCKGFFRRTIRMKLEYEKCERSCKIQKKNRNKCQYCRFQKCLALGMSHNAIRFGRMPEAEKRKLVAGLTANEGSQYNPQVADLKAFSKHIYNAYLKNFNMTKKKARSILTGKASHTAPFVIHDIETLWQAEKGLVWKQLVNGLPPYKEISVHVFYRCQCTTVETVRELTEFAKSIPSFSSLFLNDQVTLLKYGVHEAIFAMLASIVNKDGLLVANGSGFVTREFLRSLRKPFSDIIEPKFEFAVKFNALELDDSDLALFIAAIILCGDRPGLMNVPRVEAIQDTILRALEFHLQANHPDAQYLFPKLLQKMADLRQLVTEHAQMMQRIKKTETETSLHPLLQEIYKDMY
UniProt P19793, whole entry: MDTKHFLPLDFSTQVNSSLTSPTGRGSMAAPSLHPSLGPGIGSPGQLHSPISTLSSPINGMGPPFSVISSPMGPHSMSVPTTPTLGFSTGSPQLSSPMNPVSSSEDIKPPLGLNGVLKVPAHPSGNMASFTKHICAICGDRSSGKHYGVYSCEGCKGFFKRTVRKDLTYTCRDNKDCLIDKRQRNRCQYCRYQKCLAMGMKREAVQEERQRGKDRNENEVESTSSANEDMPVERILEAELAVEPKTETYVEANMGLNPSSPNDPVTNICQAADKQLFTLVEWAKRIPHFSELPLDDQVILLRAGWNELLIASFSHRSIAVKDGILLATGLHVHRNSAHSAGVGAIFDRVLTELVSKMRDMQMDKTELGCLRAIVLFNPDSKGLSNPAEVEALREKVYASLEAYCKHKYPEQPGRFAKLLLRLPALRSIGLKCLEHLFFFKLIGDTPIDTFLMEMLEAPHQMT
UniProt P16473, whole entry: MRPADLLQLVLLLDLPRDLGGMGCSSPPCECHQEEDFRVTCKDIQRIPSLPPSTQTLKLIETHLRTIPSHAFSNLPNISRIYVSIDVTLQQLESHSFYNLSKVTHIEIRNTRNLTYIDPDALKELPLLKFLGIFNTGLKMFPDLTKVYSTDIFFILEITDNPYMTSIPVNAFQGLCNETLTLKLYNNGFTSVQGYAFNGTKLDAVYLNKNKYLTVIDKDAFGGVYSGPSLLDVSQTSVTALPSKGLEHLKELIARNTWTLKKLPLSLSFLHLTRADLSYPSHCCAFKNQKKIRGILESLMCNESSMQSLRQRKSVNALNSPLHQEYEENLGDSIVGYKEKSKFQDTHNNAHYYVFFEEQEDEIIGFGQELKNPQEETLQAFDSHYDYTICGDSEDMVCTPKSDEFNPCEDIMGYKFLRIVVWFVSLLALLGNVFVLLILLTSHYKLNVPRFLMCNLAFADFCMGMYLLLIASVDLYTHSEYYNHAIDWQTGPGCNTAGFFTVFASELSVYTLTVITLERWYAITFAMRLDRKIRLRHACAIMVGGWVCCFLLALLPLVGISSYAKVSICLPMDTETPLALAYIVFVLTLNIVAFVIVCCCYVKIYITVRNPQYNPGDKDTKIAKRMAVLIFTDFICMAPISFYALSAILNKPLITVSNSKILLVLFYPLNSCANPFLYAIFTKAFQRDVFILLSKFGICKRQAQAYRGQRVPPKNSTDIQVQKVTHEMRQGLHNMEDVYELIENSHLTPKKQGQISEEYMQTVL
UniProt P06401, whole entry: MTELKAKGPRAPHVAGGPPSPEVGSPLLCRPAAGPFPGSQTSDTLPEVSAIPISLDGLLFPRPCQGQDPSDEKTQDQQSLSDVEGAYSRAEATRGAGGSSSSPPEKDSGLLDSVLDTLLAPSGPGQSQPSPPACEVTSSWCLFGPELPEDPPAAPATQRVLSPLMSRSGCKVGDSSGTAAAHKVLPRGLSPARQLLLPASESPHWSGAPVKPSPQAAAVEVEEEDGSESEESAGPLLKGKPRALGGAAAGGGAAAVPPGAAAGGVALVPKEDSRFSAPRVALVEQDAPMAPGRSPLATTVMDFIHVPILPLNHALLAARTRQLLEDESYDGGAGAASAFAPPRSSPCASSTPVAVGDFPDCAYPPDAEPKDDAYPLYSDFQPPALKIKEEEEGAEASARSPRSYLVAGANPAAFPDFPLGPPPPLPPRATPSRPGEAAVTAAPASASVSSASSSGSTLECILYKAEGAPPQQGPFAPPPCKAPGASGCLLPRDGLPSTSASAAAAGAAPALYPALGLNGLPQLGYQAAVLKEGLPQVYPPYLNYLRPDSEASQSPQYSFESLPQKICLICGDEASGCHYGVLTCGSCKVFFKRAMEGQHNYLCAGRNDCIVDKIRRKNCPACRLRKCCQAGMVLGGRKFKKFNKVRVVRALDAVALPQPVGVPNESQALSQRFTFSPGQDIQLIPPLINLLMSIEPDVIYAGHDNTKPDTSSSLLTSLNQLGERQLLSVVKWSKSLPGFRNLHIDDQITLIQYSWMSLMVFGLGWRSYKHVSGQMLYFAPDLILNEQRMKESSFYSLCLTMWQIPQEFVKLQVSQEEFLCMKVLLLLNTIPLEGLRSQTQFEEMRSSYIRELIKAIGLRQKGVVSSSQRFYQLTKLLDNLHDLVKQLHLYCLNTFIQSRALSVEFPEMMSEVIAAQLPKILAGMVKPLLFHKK

Columns and labels:
[1] = qHTS assay for identifying genotoxic compounds that show differential cytotoxicity against isogenic chicken DT40 cell lines with known DNA damage response pathways - wild type cell line (AID 743012); conditions: DT40 wild type chicken cells viability, CellTiter-Glo, 40 h; also: potency is read from the fitted curve at half-maximal effect; nearly all actives have a fitted effect of over 60% in size
Method in brief: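 First, wild type DT40 cells were plated at 300 per well and equilibrated about 0.5 h at 37 C/5% CO2. Next, compounds in DMSO were added and exposure lasted 40 h. Finally, CellTiter-Glo was added for 30 min at room temperature and luminescence recorded.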

[2] = qHTS assay for identifying genotoxic compounds that show differential cytotoxicity against isogenic chicken DT40 cell lines with known DNA damage response pathways - Rad54/Ku70 mutant cell line (AID 743015); conditions: DT40 Rad54/Ku70 mutant viability, CellTiter-Glo, 40 h; also: potency is read from the fitted curve at half-maximal effect; nearly all actives have a fitted effect of over 60% in size
[3] = qHTS assay to identify small molecule antagonists of the thyroid receptor (TR) signaling pathway - cell viability counter screen (AID 743064); conditions: GH3.TRE-Luc viability, CellTiter-Fluor, 24 h; also: potency is read from the fitted curve at half-maximal effect; nearly all actives have a fitted effect of over 50% in size
Method in brief: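 Viability of T3-stimulated (1 nM final) GH3.TRE-Luc cells is measured by CellTiter-Fluor fluorescence after 23.5 h compound exposure at 37 °C plus 30 min reagent incubation.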

[4] = qHTS assay to identify small molecule antagonists of the estrogen receptor alpha (ER-alpha) signaling pathway - cell viability counter screen (AID 743074; calls by dose curve;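 also: HEK293 cells carrying ER-alpha-UAS-bla reporter stimulated with 17beta-estradiol; potency is read from the fitted curve at half-maximal effect; nearly all actives have a fitted effect of over 45% in size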); conditions: ERalpha-bla HEK293 viability, CellTiter-Glo luminescence, 18 h
[5] = molecular target: Peroxisome proliferator-activated receptor delta (Homo sapiens) (UniProt Q03181); test: qHTS assay to identify small molecule agonists of the peroxisome proliferator-activated receptor delta (PPARd) signaling pathway (AID 743212; calls by dose curve;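 also: HEK293H cells with PPARd UAS beta-lactamase reporter GeneBLAzer system; % is scaled to controls: 0 for no effect and ±100 for the full control effect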); conditions: HEK293H PPARd-UAS-bla, beta-lactamase FRET ratio, 17 h; activation: at 62.6 µM (top of the series)
Method in brief: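 HEK293H PPARd-bla cells; 5 h preincubation 37 C/5% CO2; compound (DMSO) 37 C; LiveBLAzer B/G FRET substrate 2 h RT; fluorescence intensity.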

[6] = qHTS assay to identify small molecule agonists of the endoplasmic reticulum stress response signaling pathway - cell viability counter screen (AID 1159517; calls by dose curve; also: potency is read from the fitted curve at half-maximal effect; nearly all actives have a fitted effect of over 50% in size); conditions: ESRE-bla HeLa viability, CellTiter-Glo luminescence, 5 h
Method in brief: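 HeLa cells carrying an ESRE-driven beta-lactamase reporter receive compound for 5 hr at 37 C. Cell viability is then gauged with CellTiter-Glo by luminescence, 30 min at room temperature.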

[7] = molecular target: Retinoic acid receptor RXR-alpha (Homo sapiens) (UniProt P19793); test: qHTS assay to identify small molecule agonists of the RXR signaling pathway (AID 1159527; calls by dose curve; also: % is scaled to controls: 0 for no effect and ±100 for the full control effect; nearly all actives have a fitted effect of over 35% in size); conditions: HEK293T RXRa-UAS-bla, beta-lactamase ratio, 16 h; activation: at 76.8 µM (top of the series) unless noted
Method in brief: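 Compounds in DMSO were added to RXR-alpha-UAS-bla HEK 293T cells kept in 2% charcoal-stripped serum, and incubated 16 hr at 37 C with 5% CO2. Reporter signal came from a 2 hr B/G FRET substrate step.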

[8] = molecular target: Thyrotropin receptor (Homo sapiens) (UniProt P16473); test: qHTS assay to identify small molecule agonists of the thyroid stimulating hormone receptor (TSHR) signaling pathway (AID 1224843; calls by dose curve; also: % is scaled to controls: 0 for no effect and ±100 for the full control effect; nearly all actives have a fitted effect of over 45% in size); conditions: TSHR-HEK293 cells, cAMP HTRF, agonist mode, 30 min; activation: at 92.4 µM (top of the series)
[9] = A CellTox Green Cytotoxicity Assay to monitor cytotoxicity in HepG2 cells - 40 hour (AID 1224879); conditions: CellTox Green fluorescence; also: potency is read from the fitted curve at half-maximal effect; nearly all actives have a fitted effect of over 40% in size
Method in brief: (§1)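 Using 1536-well format, dye-containing HepG2 suspension was seeded, allowed 5 h at 37 C/5% CO2, dosed by pintool with compounds, positive and negative controls, and imaged for fluorescence across 40 h.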

[10] = A CellTox Green Cytotoxicity Assay to monitor cytotoxicity in HepG2 cells - 32 hour (AID 1224883); conditions: CellTox Green fluorescence; also: potency is read from the fitted curve at half-maximal effect; nearly all actives have a fitted effect of over 50% in size
Method in brief: as §1

[11] = molecular target: Progesterone receptor (Homo sapiens) (UniProt P06401); test: qHTS assay to identify small molecule antagonists of the progesterone receptor (PR) signaling pathway (AID 1346795; active = well fitted inhibition curve with a large enough effect in the signal ratio in the repeat runs, not every such curve was filed as active; inconclusive = weak or mixed curves; the % refers to the signal ratio; also: potency is read from the fitted curve at half-maximal effect); conditions: PR-UAS-bla HEK293T, beta-lactamase FRET ratio, 16 h; activity change, negative = inhibition: at 92.4 µM (top of the series) unless noted
Method in brief: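 Fluorescence intensity measured 2 hr after adding beta-lactamase FRET substrate to PR-UAS-bla HEK293T cells that had been co-treated 16 hr with compound and 1 nM R5020 (final concentration) in 2% charcoal-stripped FBS.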

[12] = qHTS assay to identify small molecule antagonists of the progesterone receptor (PR) signaling pathway - cell viability counter screen (AID 1346798); conditions: PR-UAS-bla HEK293T viability, CellTiter-Glo luminescence, 16 h; also: potency is read from the fitted curve at half-maximal effect; nearly all actives have a fitted effect of over 50% in size
Method in brief: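 CellTiter-Glo luminescence; PR-UAS-bla HEK293T, 3,000 cells/well; compound + R5020, 16 hr, 37C/5% CO2; 30 min RT before read.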

Cc1c([N+](=O)[O-])cccc1[N+](=O)[O-]
inconclusive: Potency [1] 0.601 µM | Potency [2] 53.6 µM | Potency [3] 26.9 µM | Potency [4] 34.1 µM | activation [5] -4.58% | Potency [6] 3.41 µM | activation [7] 8.53% | activation [8] -23.3% | Potency [9] 60.7 µM | Potency [10] 60.7 µM | Potency [11] 77 µM | Potency [12] 68.6 µM
